This experiment has as its system HEK293A TEAD-LUC reporter. The experiment can be described thus: TEAD-luciferase reporter activity (YAP activation), robust Z score vs plate; higher = stronger YAP/TEAD activation. Conditions: 24 h. On the technique in general: A reporter such as luciferase makes a cellular process visible.

Structures can show the parent of a compound that is named as a salt. Some of the results follow. Single values are uncertain here, since repeats match poorly.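 Human kidney-derived cells stably carry a construct in which eight TEAD-binding elements drive luciferase, measured by luminescence in a drug-repurposing library screen. A hit is any compound whose signal exceeds the plate mean by more than five robust Z scores.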

Regarding `Oc1cc(O)c2c(c1)O[C@H](c1ccc3c(c1)OC(c1ccccc1)(c1ccccc1)O3)[C@@H](O)C2`, the TEAD-luciferase reporter activity by setting is: (compound concentration: 200 nM) inactive: -0.789; (compound concentration: 2 uM) inactive: -0.34; (compound concentration: 10 uM) inactive: -1.51.
On the same counts, the results for `CNC(=O)c1ccc2c(c1)CCO[C@H]2CCN1CCN(c2ccc(OC)cc2)CC1` are inactive: -0.993, inactive: 3.78 and inactive: -0.674.
On the same counts, the results for `NC(=O)c1ccc(F)c2c1C[C@@H](N(C1CCC1)C1CCC1)CO2` [Robalzotan tartrate hydrate] are inactive: -1.11, inactive: 0.862 and inactive: -1.2.
Regarding `C#CCNC(=O)C1CCCN(c2nc3ncccc3o2)C1` (centres undefined), the TEAD-luciferase reporter activity reads like this: (compound concentration: 200 nM) inactive: -0.00101; (compound concentration: 10 uM) inactive: -0.189.
With `COCC12CN(S(=O)(=O)c3ccc4cc(Cl)ccc4c3)CC(=O)N1CC1(CCN(c3ccncc3)CC1)O2` (centres undefined), the TEAD-luciferase reporter activity (compound concentration: 200 nM) was inactive: 0.561, the TEAD-luciferase reporter activity (compound concentration: 2 uM) is inactive: -0.11 and the TEAD-luciferase reporter activity (compound concentration: 10 uM) was inactive: -0.59.
The like results for `COc1cc2c(cc1OC)CCN(CCc1ccc(N)cc1)CC2` [verilopam] were, in that order, inactive: -0.978, inactive: -0.831 and inactive: 0.577.
With `Brc1ccc(C(Cn2ccnc2)c2ccccc2)cc1` (centres undefined), the TEAD-luciferase reporter activity is inactive: -1.43 (compound concentration: 200 nM), inactive: -0.939 (compound concentration: 2 uM) and inactive: 1.37 (compound concentration: 10 uM).
`CN(C)CCCNc1c(C#N)[n+]([O-])c2cc(Cl)ccc2[n+]1[O-]`: the TEAD-luciferase reporter activity was inactive: -0.88 (compound concentration: 200 nM) and inactive: 1.24 (compound concentration: 10 uM).
In the case of `CC(=O)Nc1cccc2c1c(Sc1ccc(Cl)cc1)c(C)n2CC(=O)O`, the TEAD-luciferase reporter activity (compound concentration: 200 nM) is inactive: -0.773, the TEAD-luciferase reporter activity (compound concentration: 2 uM) was inactive: -0.177 and the TEAD-luciferase reporter activity (compound concentration: 10 uM) was inactive: -2.97.
Consider `COc1ccc(C(=O)NCCCCN2CCN(c3csc4cc(C(F)(F)F)ccc34)CC2)cc1`, for which the TEAD-luciferase reporter activity runs as follows: (compound concentration: 200 nM) inactive: -1.51; (compound concentration: 2 uM) inactive: -0.115; (compound concentration: 10 uM) inactive: 3.78.
In the case of `Cc1nc2n(c(=O)c1CCN1CCC(c3noc4cc(F)ccc34)CC1)CCCC2`, the TEAD-luciferase reporter activity was inactive: -0.967 (compound concentration: 200 nM) and inactive: -0.0159 (compound concentration: 10 uM).
Regarding `Cc1nc2n(c(=O)c1CCN1CCC(c3noc4cc(F)ccc34)CC1)CCCC2` [risperidone 4wk long-acting injection (IM)], the TEAD-luciferase reporter activity (compound concentration: 2 uM) is inactive: -2.88.
Consider `FC(F)(F)C(F)(F)C(F)(F)C(F)(F)C(F)(F)C(F)(F)C(F)(F)C(F)(F)Br` [Imagent BP], for which the TEAD-luciferase reporter activity runs as follows: (compound concentration: 200 nM) inactive: -0.392; (compound concentration: 2 uM) inactive: -0.332; (compound concentration: 10 uM) inactive: -0.73.
For the molecule `C=C[C@H]1C[C@]1(NC(=O)[C@@H]1C[C@@H](Oc2ncc(OC)c3ccc(Cl)cc23)CN1C(=O)[C@@H](NC(=O)OC(C)(C)C)C(C)(C)C)C(=O)NS(=O)(=O)C1CC1` [asunaprevir], the TEAD-luciferase reporter activity (compound concentration: 200 nM) was inactive: -0.196, the TEAD-luciferase reporter activity (compound concentration: 2 uM) is inactive: -0.583 and the TEAD-luciferase reporter activity (compound concentration: 10 uM) is inactive: -0.126.
As for `Cc1c2oc3c(C)ccc(C(=O)NC4C(=O)NC(C(C)C)C(=O)N5CCCC5C(=O)N(C)CC(=O)N(C)C(C(C)C)C(=O)OC4C)c3nc-2c(C(=O)NC2C(=O)NC(C(C)C)C(=O)N3CCCC3C(=O)N(C)CC(=O)N(C)C(C(C)C)C(=O)OC2C)c(N)c1=O` (centres undefined) [dactinomycin], the TEAD-luciferase reporter activity (compound concentration: 2 uM) is inactive: -3.14.
As to `Cc1c2oc3c(C)ccc(C(=O)NC4C(=O)NC(C(C)C)C(=O)N5CCCC5C(=O)N(C)CC(=O)N(C)C(C(C)C)C(=O)OC4C)c3nc-2c(C(=O)NC2C(=O)NC(C(C)C)C(=O)N3CCCC3C(=O)N(C)CC(=O)N(C)C(C(C)C)C(=O)OC2C)c(N)c1=O` (centres undefined) [Actinomycin D], the TEAD-luciferase reporter activity is inactive: -0.875 (compound concentration: 200 nM) and inactive: -0.767 (compound concentration: 10 uM).
Regarding `CC[C@@H](COC(=O)c1cc(OC)c(OC)c(OC)c1)N(C)CCN(C)[C@@H](CC)COC(=O)c1cc(OC)c(OC)c(OC)c1`, the TEAD-luciferase reporter activity is inactive: -1.07 (compound concentration: 200 nM), inactive: 1.93 (compound concentration: 2 uM) and inactive: -0.281 (compound concentration: 10 uM).
The like results for `Cc1cnc(C[S@@+]([O-])c2nc3ccccc3[nH]2)c(C)c1OCC1COC(C)(C)OC1` were, in that order, inactive: -0.144, inactive: -0.345 and inactive: 2.6.
For the molecule `CC1(C)S[C@@H]2[C@H](NC(=O)C(C(=O)[O-])c3ccccc3)C(=O)N2[C@H]1C(=O)[O-]` (some centres undefined) [Carbenicillin (disodium)], the TEAD-luciferase reporter activity (compound concentration: 200 nM) is inactive: -0.337, the TEAD-luciferase reporter activity (compound concentration: 2 uM) was inactive: -0.214 and the TEAD-luciferase reporter activity (compound concentration: 10 uM) is inactive: -0.707.
As for `NC(Cc1ccccc1)C(=O)O` (centres undefined), the TEAD-luciferase reporter activity by setting is: (compound concentration: 200 nM) inactive: -0.57; (compound concentration: 10 uM) inactive: 0.926.
On to `O=C1O[C@@H](Cc2ccccc2)CN1[C@H](CCN1CCOCC1)c1ccccc1`, for which the TEAD-luciferase reporter activity is, setting by setting: (compound concentration: 200 nM) inactive: -0.917; (compound concentration: 2 uM) inactive: 0.0516; (compound concentration: 10 uM) inactive: 0.123.
On to `CCCN1CCCCC12Cc1ccccc1CN(C(=O)CC)C2` (centres undefined), for which the TEAD-luciferase reporter activity runs as follows: (compound concentration: 200 nM) inactive: 1.97; (compound concentration: 10 uM) inactive: -1.13.
On to `CC[N+](CC)(CC)CC(=O)Nc1c(C)cccc1C`, for which, where the note is “compound concentration: 2 uM”, the TEAD-luciferase reporter activity was inactive: 0.121.
As for `CC[N+](CC)(CC)CC(=O)Nc1c(C)cccc1C` [Lidocaine N-ethyl bromide quaternary salt], the TEAD-luciferase reporter activity was inactive: 0.159 (compound concentration: 200 nM) and inactive: 2.85 (compound concentration: 10 uM).
On to `CCN(CC)CCCC(C)Nc1cc(OC)cc2cccnc12` (centres undefined), for which the TEAD-luciferase reporter activity is inactive: -1.85 (compound concentration: 200 nM), inactive: -2.07 (compound concentration: 2 uM) and inactive: -0.344 (compound concentration: 10 uM).
For `CN1CCCCC12Cc1ccccc1CN(C(=O)CCCC(=O)O)C2` (centres undefined), the TEAD-luciferase reporter activity (compound concentration: 200 nM) was inactive: -0.7 and the TEAD-luciferase reporter activity (compound concentration: 10 uM) was inactive: 0.801.
As for `N#Cc1ccc(Oc2ccc3c(c2)COB3O)c(O)c1`, the TEAD-luciferase reporter activity (compound concentration: 200 nM) was inactive: -0.0539, the TEAD-luciferase reporter activity (compound concentration: 2 uM) is inactive: -1.28 and the TEAD-luciferase reporter activity (compound concentration: 10 uM) is inactive: -0.813.
With `C=CC(=O)N1CCC(CNc2ncnc(N)c2-c2ccc(Oc3ccccc3)cc2)CC1` [Evobrutinib], the TEAD-luciferase reporter activity runs as follows: (compound concentration: 200 nM) inactive: -1.45; (compound concentration: 10 uM) inactive: -0.124.
